Results from patent US6395499B1, “Methods of identifying modulators of a DP prostaglandin receptor” (Merck Frosst Canada & Co., priority 1995, dated 2002).
pEC50: −log10 of the molar value. Some of these results come from one statement about several compounds together. At least one compound was matched to its structure with a doubt left.

Molecular target: T1, human prostaglandin D2 (DP) receptor (Homo sapiens, UniProt Q13258)
T1 construct: The full length coding cDNA was constructed as follows; expressed in transfected cells
T1 sequence (Q13258 1-359): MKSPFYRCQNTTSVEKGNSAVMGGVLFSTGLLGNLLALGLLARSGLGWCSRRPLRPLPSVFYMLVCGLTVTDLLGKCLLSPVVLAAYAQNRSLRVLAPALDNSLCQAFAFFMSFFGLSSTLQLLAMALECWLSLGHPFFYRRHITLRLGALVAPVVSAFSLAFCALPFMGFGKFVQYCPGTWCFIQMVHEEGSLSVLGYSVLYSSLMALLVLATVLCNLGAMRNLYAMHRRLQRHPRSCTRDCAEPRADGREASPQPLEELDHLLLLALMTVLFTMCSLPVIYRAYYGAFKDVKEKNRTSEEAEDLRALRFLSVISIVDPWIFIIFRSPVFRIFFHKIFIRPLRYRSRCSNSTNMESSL
Experiment: cAMP assay in HEK293 (EBNA) cells stably expressing the DP receptor
Format: cell-based
Details: 15 min at 37° C., 100 μM RO-20-1724, read-out: EC50, increase in intracellular cAMP production
Method: FIG. 5—Increases in intracellular cAMP production in HEK293 (EBNA) cells stably expressing the DP receptor is shown. cAMP assays were performed as described in Example 7. The pmoles of cAMP produced per 1.5×10^5 cells at each ligand concentration was determined for PGD2 (n), the DP receptor agonist BW245C (●), the DP antagonist BW868C (♦), PGE2 (▴), PGE1 ( ? ), PGF2α (▾), iloprost (□) and the TP-receptor agonist U46619 (∘), over a concentration range up to 1 μM.
The recently cloned human prostaglandin D2 (DP) receptor was subcloned into the pCEP4 plasmid (Invitrogen) and transfected into HEK293 (EBNA) cells by the cationic liposome-mediated transfer of DNA using LipofectAMINE™ (Gibco/BRL) reagent. Cells were maintained in culture for 48 h post transfection and then trypsinized, diluted and replated in the presence 200 μg/ml hygromycin B (Calbiochem) to select for transfected cells. Cells were maintained under selection for 3 weeks to ensure a homogeneous population of cells expressing the DP receptor.
Increases in intracellular cAMP production following agonist challenge was performed in HEK293 (EBNA) cells expressing the DP receptor and control HEK293 (EBNA) cells. […] Cell viability was always ≧96% as determined by trypan blue exclusion. […]

| Structure (SMILES) | pEC50 |
| --- | --- |
| CCCCC[C@H](O)/C=C/[C@H]1[C@H](O)CC(=O)[C@@H]1CCCCCCC(=O)O [PGE1] | < 6.30 |
| CCCCC[C@H](O)/C=C/[C@H]1[C@H](O)CC(=O)[C@@H]1C/C=C\CCCC(=O)O [PGE2] | < 6.30 |
